Reference: patent publication EP3431088A1, “MNTBAP FOR USE IN INDUCING A TRANSIENT IMMUNE TOLERANCE” (priority 2017, dated 2019)
Results are given in words; binding and its absence hold for the method and conditions named. Binding seen in cells or lysates may run through a third protein. Some binding calls cover weakened binding; strength is not graded here.

The chains behind the UniProt entries cited, without tags or fusion partners. Residues count along the entry.
UniProt P06240, residues 2-509: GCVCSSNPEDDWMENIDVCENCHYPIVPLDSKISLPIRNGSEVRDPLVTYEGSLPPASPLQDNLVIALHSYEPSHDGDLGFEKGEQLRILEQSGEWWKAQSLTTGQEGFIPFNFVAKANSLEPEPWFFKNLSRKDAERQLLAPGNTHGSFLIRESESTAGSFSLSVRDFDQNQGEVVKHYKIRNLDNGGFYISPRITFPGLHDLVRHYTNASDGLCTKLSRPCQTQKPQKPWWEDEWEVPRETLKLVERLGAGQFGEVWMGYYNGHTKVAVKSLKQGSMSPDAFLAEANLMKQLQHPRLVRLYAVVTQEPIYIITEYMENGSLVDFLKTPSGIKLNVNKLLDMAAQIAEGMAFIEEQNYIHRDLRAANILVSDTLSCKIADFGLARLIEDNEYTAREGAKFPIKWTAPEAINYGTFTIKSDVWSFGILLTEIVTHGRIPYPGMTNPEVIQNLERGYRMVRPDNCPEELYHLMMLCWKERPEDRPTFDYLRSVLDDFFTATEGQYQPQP
UniProt P06332, residues 27-457: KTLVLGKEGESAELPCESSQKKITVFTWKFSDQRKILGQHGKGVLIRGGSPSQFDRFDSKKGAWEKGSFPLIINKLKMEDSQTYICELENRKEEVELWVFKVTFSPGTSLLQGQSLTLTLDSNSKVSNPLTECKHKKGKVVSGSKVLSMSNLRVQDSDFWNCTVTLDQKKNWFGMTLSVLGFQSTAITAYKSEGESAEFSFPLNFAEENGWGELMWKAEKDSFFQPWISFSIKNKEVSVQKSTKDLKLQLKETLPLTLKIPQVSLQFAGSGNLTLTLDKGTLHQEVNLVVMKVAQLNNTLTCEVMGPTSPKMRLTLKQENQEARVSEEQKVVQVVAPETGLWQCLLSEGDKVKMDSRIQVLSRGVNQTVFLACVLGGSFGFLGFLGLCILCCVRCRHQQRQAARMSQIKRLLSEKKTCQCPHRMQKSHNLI

Assays:
p56^Lck (mouse) [1] = biological target: p56^Lck (mouse) (UniProt P06240); assay: co-immunoprecipitation: anti-CD4 (GK1.5) IP from lysates of murine splenic CD4+ T cells, blot for p56Lck; with or without MnTBAP
p56^Lck (mouse) [2] = biological target: p56^Lck (mouse) (UniProt P06240); assay: co-immunoprecipitation: anti-CD4 (GK1.5) IP from lysates of murine splenic CD4+ T cells, blot for p56Lck; with or without 400 uM MnTBAP for 2 hours

With “murine CD4 glycoprotein (from UniProt P06332 27-457) (receptor)” the binding (p56^Lck (mouse) [1]) was “binds” and the binding (p56^Lck (mouse) [2]) was “binds”.
